According to the supplement of paper PMC10849652:
Some of the results follow.

By UniProt entry, the sequences of proteins in these tests, tags left out. Where a name states a change or a piece, a line headed by the entry shows the natural chain unless it says otherwise.
UniProt Q9NR22, whole entry, looked up: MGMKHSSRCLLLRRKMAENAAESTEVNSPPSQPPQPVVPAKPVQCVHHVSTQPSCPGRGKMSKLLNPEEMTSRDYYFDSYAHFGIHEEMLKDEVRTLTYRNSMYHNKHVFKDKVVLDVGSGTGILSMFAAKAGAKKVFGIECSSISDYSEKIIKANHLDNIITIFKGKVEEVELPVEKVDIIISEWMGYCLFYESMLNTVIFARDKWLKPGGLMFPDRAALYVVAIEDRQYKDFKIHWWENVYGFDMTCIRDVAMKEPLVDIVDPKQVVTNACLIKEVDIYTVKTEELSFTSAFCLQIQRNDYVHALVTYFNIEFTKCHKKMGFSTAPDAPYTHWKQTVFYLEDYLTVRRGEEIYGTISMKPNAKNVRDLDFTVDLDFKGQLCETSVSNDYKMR
UniProt O15355: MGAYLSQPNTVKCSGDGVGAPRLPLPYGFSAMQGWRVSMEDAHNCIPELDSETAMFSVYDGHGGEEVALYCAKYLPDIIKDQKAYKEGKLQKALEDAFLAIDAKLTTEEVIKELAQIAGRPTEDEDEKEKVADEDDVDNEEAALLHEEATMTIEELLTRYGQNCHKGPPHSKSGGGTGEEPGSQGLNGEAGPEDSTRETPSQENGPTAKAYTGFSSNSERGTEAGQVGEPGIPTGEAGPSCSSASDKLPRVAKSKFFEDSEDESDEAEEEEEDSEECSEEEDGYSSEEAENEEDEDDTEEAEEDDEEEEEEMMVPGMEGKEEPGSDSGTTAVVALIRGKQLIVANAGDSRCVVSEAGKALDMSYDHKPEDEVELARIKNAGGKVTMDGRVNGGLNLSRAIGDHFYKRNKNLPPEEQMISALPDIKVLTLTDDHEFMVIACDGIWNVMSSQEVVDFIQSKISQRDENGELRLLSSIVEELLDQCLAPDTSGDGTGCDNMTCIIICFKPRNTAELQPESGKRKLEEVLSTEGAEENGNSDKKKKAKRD
UniProt P49642: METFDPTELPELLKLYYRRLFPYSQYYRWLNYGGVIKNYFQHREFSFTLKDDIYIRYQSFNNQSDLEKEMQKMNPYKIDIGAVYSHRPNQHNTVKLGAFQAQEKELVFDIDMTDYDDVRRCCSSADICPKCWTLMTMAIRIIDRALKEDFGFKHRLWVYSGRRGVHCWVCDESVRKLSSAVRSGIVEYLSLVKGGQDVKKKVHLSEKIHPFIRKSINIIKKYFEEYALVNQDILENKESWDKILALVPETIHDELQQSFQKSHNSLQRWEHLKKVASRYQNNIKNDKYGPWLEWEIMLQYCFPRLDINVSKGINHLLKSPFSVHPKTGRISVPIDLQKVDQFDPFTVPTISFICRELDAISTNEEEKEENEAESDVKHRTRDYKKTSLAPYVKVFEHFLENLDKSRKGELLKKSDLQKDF
UniProt P54619: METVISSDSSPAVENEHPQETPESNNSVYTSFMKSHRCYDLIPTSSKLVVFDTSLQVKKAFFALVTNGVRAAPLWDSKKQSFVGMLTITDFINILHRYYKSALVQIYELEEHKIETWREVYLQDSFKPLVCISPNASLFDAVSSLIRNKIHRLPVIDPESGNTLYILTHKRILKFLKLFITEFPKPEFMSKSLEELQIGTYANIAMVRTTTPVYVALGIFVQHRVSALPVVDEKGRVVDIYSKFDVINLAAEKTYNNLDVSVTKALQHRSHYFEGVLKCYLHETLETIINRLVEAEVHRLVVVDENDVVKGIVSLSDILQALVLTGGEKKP
UniProt Q99873, whole entry, looked up: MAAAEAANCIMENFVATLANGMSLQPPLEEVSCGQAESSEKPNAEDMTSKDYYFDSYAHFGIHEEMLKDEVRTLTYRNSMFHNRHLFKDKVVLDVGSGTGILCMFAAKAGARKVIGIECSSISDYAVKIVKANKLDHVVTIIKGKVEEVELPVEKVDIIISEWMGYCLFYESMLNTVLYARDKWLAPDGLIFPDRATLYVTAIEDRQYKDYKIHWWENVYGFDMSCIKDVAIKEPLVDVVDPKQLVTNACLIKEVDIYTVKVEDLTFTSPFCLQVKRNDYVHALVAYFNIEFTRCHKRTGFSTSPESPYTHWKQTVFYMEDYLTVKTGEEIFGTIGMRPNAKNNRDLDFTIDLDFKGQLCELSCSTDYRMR
UniProt P78395, whole entry, looked up: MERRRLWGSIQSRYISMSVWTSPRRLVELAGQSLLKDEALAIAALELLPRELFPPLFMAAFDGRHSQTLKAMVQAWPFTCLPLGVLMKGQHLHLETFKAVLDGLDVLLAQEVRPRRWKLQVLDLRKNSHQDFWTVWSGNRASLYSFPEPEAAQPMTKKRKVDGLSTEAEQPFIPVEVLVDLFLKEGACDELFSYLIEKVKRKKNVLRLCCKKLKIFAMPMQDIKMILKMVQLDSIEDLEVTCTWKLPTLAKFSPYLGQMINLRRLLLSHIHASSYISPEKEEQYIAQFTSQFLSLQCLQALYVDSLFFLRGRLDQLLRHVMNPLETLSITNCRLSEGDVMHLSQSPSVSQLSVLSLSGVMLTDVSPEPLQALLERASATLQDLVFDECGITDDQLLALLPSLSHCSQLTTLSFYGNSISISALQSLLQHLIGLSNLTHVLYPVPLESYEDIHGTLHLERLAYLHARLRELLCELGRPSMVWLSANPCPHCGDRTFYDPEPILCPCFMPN
UniProt P63151: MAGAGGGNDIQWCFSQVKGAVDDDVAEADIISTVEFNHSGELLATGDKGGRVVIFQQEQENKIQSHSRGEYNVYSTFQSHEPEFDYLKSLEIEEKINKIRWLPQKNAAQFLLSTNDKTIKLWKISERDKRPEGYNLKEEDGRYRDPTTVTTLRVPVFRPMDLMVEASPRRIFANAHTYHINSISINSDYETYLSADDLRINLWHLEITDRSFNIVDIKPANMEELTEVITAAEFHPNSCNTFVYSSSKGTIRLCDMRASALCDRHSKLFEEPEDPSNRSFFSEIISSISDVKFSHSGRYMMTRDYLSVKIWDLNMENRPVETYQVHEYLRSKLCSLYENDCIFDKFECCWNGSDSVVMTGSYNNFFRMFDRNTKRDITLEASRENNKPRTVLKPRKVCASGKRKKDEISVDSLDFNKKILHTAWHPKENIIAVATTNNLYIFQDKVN
UniProt Q9Y570: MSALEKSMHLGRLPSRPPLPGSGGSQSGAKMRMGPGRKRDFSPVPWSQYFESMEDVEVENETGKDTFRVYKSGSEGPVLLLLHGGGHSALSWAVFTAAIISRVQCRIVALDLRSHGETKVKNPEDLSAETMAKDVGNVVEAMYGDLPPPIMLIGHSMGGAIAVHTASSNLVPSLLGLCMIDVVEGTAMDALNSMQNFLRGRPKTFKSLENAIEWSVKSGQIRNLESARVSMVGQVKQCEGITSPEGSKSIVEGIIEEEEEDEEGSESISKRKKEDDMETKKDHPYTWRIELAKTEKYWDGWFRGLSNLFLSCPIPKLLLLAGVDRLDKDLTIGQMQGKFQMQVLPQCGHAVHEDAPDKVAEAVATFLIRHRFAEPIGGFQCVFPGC
UniProt P32119: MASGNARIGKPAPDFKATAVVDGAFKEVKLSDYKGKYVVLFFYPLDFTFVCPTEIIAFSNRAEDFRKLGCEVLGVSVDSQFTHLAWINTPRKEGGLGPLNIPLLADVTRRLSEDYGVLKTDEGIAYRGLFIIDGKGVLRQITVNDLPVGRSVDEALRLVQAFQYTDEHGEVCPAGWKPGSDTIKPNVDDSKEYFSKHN
UniProt Q9NY27: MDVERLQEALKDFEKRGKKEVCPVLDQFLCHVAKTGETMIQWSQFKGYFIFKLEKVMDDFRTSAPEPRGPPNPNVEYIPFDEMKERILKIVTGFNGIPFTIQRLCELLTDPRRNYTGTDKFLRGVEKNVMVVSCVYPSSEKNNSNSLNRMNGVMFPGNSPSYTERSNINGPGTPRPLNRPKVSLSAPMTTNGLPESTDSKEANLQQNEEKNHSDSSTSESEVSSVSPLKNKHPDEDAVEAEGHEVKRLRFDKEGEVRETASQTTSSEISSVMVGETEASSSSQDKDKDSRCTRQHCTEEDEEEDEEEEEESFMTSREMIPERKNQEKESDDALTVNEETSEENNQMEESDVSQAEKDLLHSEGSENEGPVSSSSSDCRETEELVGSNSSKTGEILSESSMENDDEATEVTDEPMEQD
UniProt Q8WY54: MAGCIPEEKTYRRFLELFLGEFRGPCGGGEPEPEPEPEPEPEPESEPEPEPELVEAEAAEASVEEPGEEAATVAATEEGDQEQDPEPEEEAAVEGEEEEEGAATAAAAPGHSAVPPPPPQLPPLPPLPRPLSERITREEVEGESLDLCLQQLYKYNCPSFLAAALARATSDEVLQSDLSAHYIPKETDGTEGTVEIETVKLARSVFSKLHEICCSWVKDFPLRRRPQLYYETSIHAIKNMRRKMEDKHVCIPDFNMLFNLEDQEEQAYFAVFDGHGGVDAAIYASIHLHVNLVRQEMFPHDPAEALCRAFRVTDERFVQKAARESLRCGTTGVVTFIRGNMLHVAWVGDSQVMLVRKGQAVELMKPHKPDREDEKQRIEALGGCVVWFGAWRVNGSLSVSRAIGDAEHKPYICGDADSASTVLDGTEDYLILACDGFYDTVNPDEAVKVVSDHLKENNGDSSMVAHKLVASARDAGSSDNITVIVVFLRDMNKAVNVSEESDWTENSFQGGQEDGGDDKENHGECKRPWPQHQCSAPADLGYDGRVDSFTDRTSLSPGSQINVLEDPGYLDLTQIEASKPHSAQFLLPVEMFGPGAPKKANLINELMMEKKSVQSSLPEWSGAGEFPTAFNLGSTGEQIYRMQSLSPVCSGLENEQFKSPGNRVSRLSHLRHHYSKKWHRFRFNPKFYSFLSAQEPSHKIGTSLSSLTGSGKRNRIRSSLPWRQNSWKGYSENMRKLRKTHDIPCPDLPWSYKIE
UniProt O43172: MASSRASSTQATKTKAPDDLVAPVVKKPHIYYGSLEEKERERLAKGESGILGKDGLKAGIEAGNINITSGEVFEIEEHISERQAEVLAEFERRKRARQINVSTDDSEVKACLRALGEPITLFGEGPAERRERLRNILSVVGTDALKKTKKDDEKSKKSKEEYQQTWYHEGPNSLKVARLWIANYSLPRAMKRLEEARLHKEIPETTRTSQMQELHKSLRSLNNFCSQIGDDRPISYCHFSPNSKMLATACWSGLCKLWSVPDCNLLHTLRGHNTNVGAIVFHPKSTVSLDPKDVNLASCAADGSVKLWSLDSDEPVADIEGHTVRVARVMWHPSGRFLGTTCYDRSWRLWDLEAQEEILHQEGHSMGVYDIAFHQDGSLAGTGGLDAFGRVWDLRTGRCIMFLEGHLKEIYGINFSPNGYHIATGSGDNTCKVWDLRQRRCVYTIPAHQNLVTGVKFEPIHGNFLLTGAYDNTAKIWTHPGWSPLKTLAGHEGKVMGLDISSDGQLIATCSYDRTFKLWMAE
UniProt Q8NAV1: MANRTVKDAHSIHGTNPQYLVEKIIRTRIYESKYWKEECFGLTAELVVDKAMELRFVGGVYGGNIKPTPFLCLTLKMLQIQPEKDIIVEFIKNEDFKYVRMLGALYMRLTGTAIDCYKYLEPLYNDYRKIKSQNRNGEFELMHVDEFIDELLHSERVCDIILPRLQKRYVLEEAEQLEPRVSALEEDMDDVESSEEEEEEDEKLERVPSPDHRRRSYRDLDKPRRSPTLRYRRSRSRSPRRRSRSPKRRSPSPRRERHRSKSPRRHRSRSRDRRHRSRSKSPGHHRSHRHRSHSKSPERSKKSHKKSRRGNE
UniProt O75569: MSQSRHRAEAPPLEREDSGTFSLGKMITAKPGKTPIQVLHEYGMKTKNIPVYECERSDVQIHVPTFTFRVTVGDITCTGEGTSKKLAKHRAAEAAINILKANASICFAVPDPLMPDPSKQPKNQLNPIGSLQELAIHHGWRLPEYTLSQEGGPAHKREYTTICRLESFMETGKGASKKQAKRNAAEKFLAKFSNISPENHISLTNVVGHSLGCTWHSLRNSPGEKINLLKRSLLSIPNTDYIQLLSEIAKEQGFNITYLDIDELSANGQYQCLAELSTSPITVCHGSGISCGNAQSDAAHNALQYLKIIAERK

Columns and labels:
Assay in all cases: log2 fold change, soluble protein after heating vs DMSO (PISA); higher = thermal stabilisation; K562 cells, 10 uM, 30 min; active = over 0.2 and 3.5 SD of the protein, either way, in both replicates (recomputed)
[1] = compound: NC(=O)Nc1cc(-c2cccc(F)c2)sc1C(=O)N[C@H]1CCCNC1
How it was run: (§1)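 Aliquots of K562 cells (2×10^6 cells/mL) treated with 10 μM compound for 30 min were heated for 3 min over 48°C-58°C. After pooling and extraction in PBS with 0.5% NP-40 at 4°C, soluble protein from a 21,000xg, 90 min spin was quantified by TMTpro 16plex LC-MS/MS with channel sums equalised. Thermal stability is expressed against control samples, from duplicates, as a log2 fold change.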

[2] = compound: NC(=O)c1cnc(N[C@@H]2CCCC[C@@H]2N)nc1Nc1cccc(-n2nccn2)c1
How it was run: as §1

[3] = compound: NC1(c2ccc(-c3nc4ccn5c(=O)[nH]nc5c4cc3-c3ccccc3)cc2)CCC1
How it was run: as §1

[4] = compound: NCC(=O)Nc1ccc(-n2nc(C(F)(F)F)cc2-c2ccc3c(ccc4ccccc43)c2)cc1
How it was run: as §1

[5] = compound: Nc1ccccc1NC(=O)c1ccc(CNC(=O)OCc2cccnc2)cc1 [entinostat]
How it was run: as §1

[6] = compound: O=C(CCCCCCC(=O)Nc1ccccc1)NO [vorinostat]
How it was run: as §1

[7] = compound: O=C(CCCCCCNC(=O)c1cnc(N(c2ccccc2)c2ccccc2Cl)nc1)NO [citarinostat]
How it was run: as §1

[8] = compound: O=C(O)c1ccc2c(c1)nc(Nc1cccc(Cl)c1)c1ccncc12 [silmitasertib]
How it was run: as §1

[9] = compound: O=C1NC(=O)C(c2cnc3ccccn23)=C1c1cn2c3c(cc(F)cc13)CN(C(=O)N1CCCCC1)CC2
How it was run: as §1

[10] = compound: c1cc(OCCN2CCCCC2)cc(-c2n[nH]c3ccc(-c4nnc[nH]4)cc23)c1
How it was run: as §1

[11] = compound: c1cn2cc(-c3ccc4cn[nH]c4c3)nc(Nc3ccc(N4CCOCC4)cc3)c2n1 [entospletinib]
How it was run: as §1

Measured: log2 fold change

PRG4 (UniProt Q92954)
inactive: [1] -0.168 | [2] -0.113 | [3] -0.16 | [4] -0.068 | [5] -0.156 | [6] 0.201 | [7] -0.015 | [8] 0 | [9] -0.109 | [10] -0.097

PPP2R5A (UniProt Q15172)
inactive: [1] 0.098 | [2] 0.009 | [4] -0.013 | [5] 0.094 | [6] 0.106 | [7] 0.114 | [8] -0.059 | [9] -0.044 | [10] -0.021
active: [3] -0.254

PRKCA (UniProt P17252)
inactive: [1] -0.085 | [2] -0.134 | [3] -0.181 | [4] -0.029 | [5] 0.057 | [6] 0.117 | [7] 0.028 | [8] -0.045 | [9] -0.205 | [10] -0.091

PRKCD (UniProt Q05655)
inactive: [1] -0.086 | [2] -0.05 | [3] -0.081 | [4] -0.031 | [5] 0.024 | [6] 0.031 | [7] 0.006 | [8] 0.045 | [9] -0.06 | [10] -0.083

PRKACB isoform 2 (UniProt P22694)
inactive: [1] 0.078 | [2] -0.11 | [3] -0.173 | [4] -0.02 | [5] 0.001 | [6] 0.04 | [7] 0.015 | [8] -0.002 | [9] -0.119 | [10] -0.065

PRMT8 (UniProt Q9NR22)
inactive: [2] -0.149 | [3] -0.118 | [4] -0.054 | [5] 0.21 | [6] 0.029 | [7] -0.031 | [8] -0.039 | [9] -0.057 | [10] -0.006
active: [1] 0.403

PPM1G (UniProt O15355)
inactive: [1] -0.147 | [2] -0.086 | [3] -0.018 | [4] -0.181 | [5] 0.017 | [6] 0.079 | [7] 0.033 | [8] 0.031 | [9] -0.114 | [10] -0.102

PRIM1 (UniProt P49642)
inactive: [1] -0.008 | [2] -0.016 | [3] -0.093 | [4] -0.056 | [5] 0.041 | [6] 0.065 | [7] 0.063 | [8] 0.089 | [9] 0.023 | [10] -0.037

PRKAG1 isoform 3 (UniProt P54619)
inactive: [1] -0.105 | [2] -0.033 | [3] -0.069 | [4] -0.045 | [5] 0.017 | [6] 0.071 | [7] 0.04 | [8] 0.016 | [9] -0.042 | [10] -0.091

PRMT1 (UniProt Q99873)
inactive: [1] -0.017 | [2] -0.042 | [3] -0.13 | [4] -0.035 | [5] 0.014 | [6] 0.012 | [7] 0.001 | [8] -0.008 | [9] -0.069 | [10] -0.064 | [11] -0.003

PRAME (UniProt P78395)
inactive: [1] 0.17 | [2] -0.06 | [3] 0.002 | [4] 0.029 | [5] 0.023 | [6] 0.089 | [7] 0.076 | [8] 0.075 | [9] 0.062 | [10] -0.1 | [11] -0.027

PPM1H (UniProt Q9ULR3)
inactive: [1] -0.019 | [2] 0.018 | [3] -0.005 | [4] 0.011 | [5] -0.053 | [6] -0.002 | [7] 0.028 | [8] 0.007 | [9] -0.089 | [10] -0.025 | [11] -0.021

PPP2R2A isoform 2 (UniProt P63151)
inactive: [1] -0.013 | [2] -0.036 | [3] -0.032 | [4] -0.004 | [5] -0.015 | [6] 0.005 | [7] 0.04 | [8] 0.005 | [9] -0.038 | [10] -0.029 | [11] -0.031

Two entries picked at random from those above:
PRKAG1 isoform 3 (UniProt P54619)
inactive: [1] -0.105 | [2] -0.033 | [3] -0.069 | [4] -0.045 | [5] 0.017 | [6] 0.071 | [7] 0.04 | [8] 0.016 | [9] -0.042 | [10] -0.091

PPP2R2A isoform 2 (UniProt P63151)
inactive: [1] -0.013 | [2] -0.036 | [3] -0.032 | [4] -0.004 | [5] -0.015 | [6] 0.005 | [7] 0.04 | [8] 0.005 | [9] -0.038 | [10] -0.029 | [11] -0.031

Continuation:

PPP1CA (UniProt P62136)
inactive: [1] -0.036 | [2] -0.051 | [3] -0.019 | [4] -0.02 | [5] -0.012 | [6] -0.023 | [7] 0.034 | [8] 0 | [9] 0.007 | [10] -0.045

PPME1 (UniProt Q9Y570)
inactive: [1] -0.053 | [2] -0.046 | [3] -0.001 | [4] -0.006 | [5] -0.005 | [6] -0.004 | [7] 0.014 | [8] 0.021 | [9] -0.028 | [10] -0.034 | [11] -0.003

PRDX2 (UniProt P32119)
inactive: [1] -0.028 | [2] -0.069 | [3] 0.001 | [4] -0.05 | [5] -0.001 | [6] -0.01 | [7] 0.036 | [8] -0.029 | [9] -0.082 | [10] -0.01 | [11] 0.001

PPT1 (UniProt P50897)
active: [3] -0.338
inactive: [1] -0.049 | [2] -0.095 | [4] -0.096 | [5] -0.03 | [6] -0.036 | [7] 0.053 | [8] 0.019 | [9] -0.041 | [10] -0.041

PPP4R2 (UniProt Q9NY27)
inactive: [1] -0.103 | [2] -0.037 | [3] -0.067 | [4] -0.017 | [5] -0.002 | [6] -0.002 | [7] 0.032 | [8] 0.016 | [9] -0.028 | [10] -0.016 | [11] 0.019

PPM1E (UniProt Q8WY54)
inactive: [1] -0.056 | [2] -0.019 | [3] -0.074 | [4] -0.014 | [5] -0.014 | [6] 0.002 | [7] 0.057 | [8] -0.085 | [9] -0.325 | [10] 0.02 | [11] -0.025

PRPF8 (UniProt Q6P2Q9)
inactive: [1] 0.02 | [2] -0.011 | [3] 0.023 | [4] 0.022 | [5] -0.008 | [6] -0.02 | [7] -0.03 | [8] 0.043 | [9] 0.061 | [10] -0.157 | [11] -0.014

PRDX5 (UniProt P30044)
inactive: [1] -0.014 | [2] -0.009 | [3] -0.016 | [4] -0.008 | [5] 0.014 | [6] -0.014 | [7] 0.046 | [8] -0.004 | [9] -0.029 | [10] 0.018 | [11] 0.02

PRPF4 (UniProt O43172)
inactive: [1] 0.001 | [2] -0.035 | [3] -0.073 | [4] -0.009 | [5] 0.047 | [6] 0.027 | [7] 0.046 | [8] 0.006 | [9] -0.065 | [10] -0.065 | [11] 0.005

PRPF19 (UniProt Q9UMS4)
inactive: [1] 0.008 | [2] 0 | [3] -0.01 | [4] 0.014 | [5] -0.02 | [6] -0.097 | [7] 0.007 | [8] 0.007 | [9] 0.003 | [10] -0.027 | [11] 0.023

PRPF38A (UniProt Q8NAV1)
inactive: [1] -0.039 | [2] -0.015 | [3] -0.105 | [4] -0.006 | [5] 0.004 | [6] 0.002 | [7] 0.152 | [8] -0.212 | [9] 0.095 | [10] -0.122

PRKAR1B (UniProt P31321)
inactive: [1] 0.001 | [2] 0.085 | [3] 0.129 | [4] 0.045 | [5] -0.015 | [6] -0.031 | [7] 0 | [8] 0.07 | [9] 0.024 | [10] -0.142

PPM1F (UniProt P49593)
inactive: [1] -0.027 | [2] -0.038 | [3] -0.105 | [4] -0.085 | [5] 0.007 | [6] 0.002 | [7] 0.022 | [8] -0.028 | [9] -0.014 | [10] -0.008 | [11] 0.004

PRKRA (UniProt O75569)
inactive: [1] 0.095 | [2] 0.053 | [3] 0.179 | [4] 0.102 | [5] -0.012 | [6] 0.019 | [7] -0.084 | [8] 0.139 | [9] 0.258 | [10] -0.225 | [11] 0.186

PPP1CB (UniProt P62140)
inactive: [1] -0.042 | [2] -0.016 | [3] 0.017 | [4] -0.061 | [5] 0.009 | [6] 0.077 | [7] 0.039 | [8] -0.026 | [9] 0.111 | [10] -0.081 | [11] -0.02
